The source of these data is PMC10043283, “Neuraminidase 1 promotes renal fibrosis development in male mice” (Nature Communications, 2023).

The experiment deals with neuraminidase 1 (NEU1), endogenous (human (endogenous in HK-2 and in human kidney biopsies)) (UniProt Q99519). In words: affinity purification with mass spectrometry; co-precipitates with NEU1 analysed by LC-MS/MS (Q Exactive HF, MaxQuant); cells not given.

Results are given in words; binding and its absence hold for the method and conditions named. Binding seen in cells or lysates may run through a third protein. These calls come from enrichment with a bait or labelling near it, and not all partners need be listed.

B1: TGFβ type I receptor ALK5, endogenous (receptor, UniProt P36897 34-503)
chain: LQCFCHLCTKDNFTCVTDGLCFVSVTETTDKVIHNSMCIAEIDLIPRDRPFVCAPSSKTGSVTTTYCCNQDHCNKIELPTTVKSSPGLGPVELAAVIAGPVCFVCISLMLMVYICHNRTVIHHRVPNEEDPSLDRPFISEGTTLKDLIYDMTTSGSGSGLPLLVQRTIARTIVLQESIGKGRFGEVWRGKWRGEEVAVKIFSSREERSWFREAEIYQTVMLRHENILGFIAADNKDNGTWTQLWLVSDYHEHGSLFDYLNRYTVTVEGMIKLALSTASGLAHLHMEIVGTQGKPAIAHRDLKSKNILVKKNGTCCIADLGLAVRHDSATDTIDIAPNHRVGTKRYMAPEVLDDSINMKHFESFKRADIYAMGLVFWEIARRCSIGGIHEDYQLPYYDLVPSDPSVEEMRKVVCEQKLRPNIPNRWQSCEALRVMAKIMRECWYANGAARLTALRIKKTLSQLSQQEGIKM
As to B1, the binding result is recorded as “binds”.
